According to patent US7960513B2, “Antibody against a human ADAM protease” (Monash University, priority 2004, dated 2011):
No constants are given. Whether binding was seen depends on the method and setting. Some results given as binding are weak or reduced against the parent protein; the word gives no strength. Where a sequence is shown, tags or fusion partners need not be part of it.

How the values were obtained:
[1] = biological target: T1, EphA3/ephrin-A5 complex on cells (cell-surface EphA3 with pre-clustered ephrin-A5-Fc) (human) (UniProt P29320+P52803); assay: anti-EphA3 immunoprecipitation, anti-ADAM10 Western blot
T1 sequence (looked up) 1: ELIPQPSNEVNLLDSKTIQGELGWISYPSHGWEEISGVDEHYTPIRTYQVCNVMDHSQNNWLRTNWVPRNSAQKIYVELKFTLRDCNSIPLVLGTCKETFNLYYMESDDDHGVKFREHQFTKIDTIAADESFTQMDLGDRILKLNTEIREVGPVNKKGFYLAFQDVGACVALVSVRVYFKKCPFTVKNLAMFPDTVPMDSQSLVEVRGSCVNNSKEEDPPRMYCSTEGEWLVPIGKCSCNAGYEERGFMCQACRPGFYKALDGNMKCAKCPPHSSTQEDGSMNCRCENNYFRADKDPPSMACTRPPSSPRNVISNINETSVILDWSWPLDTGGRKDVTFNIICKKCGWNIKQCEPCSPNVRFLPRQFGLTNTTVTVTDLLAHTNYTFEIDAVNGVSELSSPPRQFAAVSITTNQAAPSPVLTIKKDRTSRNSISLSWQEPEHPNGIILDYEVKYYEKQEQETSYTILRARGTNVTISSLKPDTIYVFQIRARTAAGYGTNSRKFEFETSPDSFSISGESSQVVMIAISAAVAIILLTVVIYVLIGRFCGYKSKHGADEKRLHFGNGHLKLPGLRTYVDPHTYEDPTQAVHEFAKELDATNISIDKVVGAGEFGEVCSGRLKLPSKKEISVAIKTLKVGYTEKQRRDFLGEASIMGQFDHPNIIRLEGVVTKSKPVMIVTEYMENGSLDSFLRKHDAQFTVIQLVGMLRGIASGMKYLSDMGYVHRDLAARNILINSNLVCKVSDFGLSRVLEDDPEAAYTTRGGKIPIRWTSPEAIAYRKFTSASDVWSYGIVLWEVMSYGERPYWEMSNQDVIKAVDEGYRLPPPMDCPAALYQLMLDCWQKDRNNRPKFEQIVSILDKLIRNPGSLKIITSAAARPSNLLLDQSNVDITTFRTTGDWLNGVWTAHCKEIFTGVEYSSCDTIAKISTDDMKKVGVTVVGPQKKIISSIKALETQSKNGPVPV
T1 sequence (looked up) 2: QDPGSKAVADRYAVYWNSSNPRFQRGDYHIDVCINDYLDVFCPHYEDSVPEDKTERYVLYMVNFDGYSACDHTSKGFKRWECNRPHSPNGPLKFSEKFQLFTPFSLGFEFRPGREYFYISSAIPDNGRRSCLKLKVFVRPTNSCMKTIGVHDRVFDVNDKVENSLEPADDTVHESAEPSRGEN

[2] = biological target: T2, EphA3 (wild type, expressed in cells) (UniProt P29320); assay: anti-HA and anti-EphA3 immunoprecipitation from EphA3/293 cells, Western blot
T2 sequence (looked up): T1 sequence (looked up) 1

B1: endogenous ADAM10 (HEK293 and LiBr melanoma cells) (enzyme, human, UniProt O14672 214-748, looked up)
chain: TTSAEKNTCQLYIQTDHLFFKYYGTREAVIAQISSHVKAIDTIYQTTDFSGIRNISFMVKRIRINTTADEKDPTNPFRFPNIGVEKFLELNSEQNHDDYCLAYVFTDRDFDDGVLGLAWVGAPSGSSGGICEKSKLYSDGKKKSLNTGIITVQNYGSHVPPKVSHITFAHEVGHNFGSPHDSGTECTPGESKNLGQKENGNYIMYARATSGDKLNNNKFSLCSIRNISQVLEKKRNNCFVESGQPICGNGMVEQGEECDCGYSDQCKDECCFDANQPEGRKCKLKPGKQCSPSQGPCCTAQCAFKSKSEKCRDDSDCAREGICNGFTALCPASDPKPNFTDCNRHTQVCINGQCAGSICEKYGLEECTCASSDGKDDKELCHVCCMKKMDPSTCASTGSVQWSRHFSGRTITLQPGSPCNDFRGYCDVFMRCRLVDADGPLARLKKAIFSPELYENIAEWIVAHWWAVLLMGIALIMLMAGFIKICSVHTPSSNPKLPPPKPLPGTLKRRRPPQPIQQPQRQRPRESYQMGHMRR
notes: whole, on cells; Both pro and mature forms are marked on the blot; also called pro (unprocessed) and mature (processed) forms
binding [1]: binds

B2: HA-ADAM10ΔMP [EEE-A] (protein, mouse, UniProt O35598 456-749, looked up, not shown: small tags and cut ends)
chain: SGQPICGNGMVEQGEECDCGYSDQCKDDCCFDANQPEGKKCKLKPGKQCSPSQGPCCTAQCAFKSKSEKCRDDSDCAKEGICNGFTALCPASDPKPNFTDCNRHTQVCINGQCAGSICAKYDLAACTCASSDGKDDKELCHVCCMKKMAPSTCASTGSLQWSKQFSGRTITLQPGSPCNDFRGYCDVFMRCRLVDADGPLARLKKAIFSPQLYENIAEWIVAHWWAVLLMGIALIMLMAGFIKICSVHTPSSNPKLPPPKPLPGTLKRRRPPQPIQQPPRQRPRESYQMGHMRR
binding [2]: binds
